This is one part of the list. At the low end of the ranking the order means little.
Biological target: T1, PUM1 PUF domain R1-QFR R2-VFQ R7-NPG S863Q + R864F + Q867R + N899V + Y900F + S1079N + N1080P + E1083G (UniProt Q14671)
T1 sequence: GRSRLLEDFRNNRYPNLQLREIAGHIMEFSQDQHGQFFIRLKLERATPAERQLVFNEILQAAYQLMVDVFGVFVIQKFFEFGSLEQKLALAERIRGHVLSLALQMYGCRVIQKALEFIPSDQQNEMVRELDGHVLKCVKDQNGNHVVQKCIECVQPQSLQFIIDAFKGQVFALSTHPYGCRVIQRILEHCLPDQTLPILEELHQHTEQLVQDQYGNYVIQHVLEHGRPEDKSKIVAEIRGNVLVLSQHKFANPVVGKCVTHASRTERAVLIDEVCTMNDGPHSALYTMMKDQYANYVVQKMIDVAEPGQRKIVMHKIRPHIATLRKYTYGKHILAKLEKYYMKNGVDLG
Settings: yeast three-hybrid, YBZ-1, SC-Leu-His + 0.5 mM 3-AT, 4 days

| Sequence | binding signal (log2 enrichment (interaction score)) |
| --- | --- |
| GGCUAGAACUAGUGGAUCCCCCGGCGCCCGGCGGCUCGAGCCCGGGUAAGUUUACGAGGUCUGCAUGCCGCCGGGCGCCAUGCCUGCAGGUCGACUCUAGAAAACAUG | < -5.26 |
| GGCUAGAACUAGUGGAUCCCCCGGCGCCCGGCGGCUCGAGCCCGGGUAAGUUUAAGAAGUCUGCAUGCCGCCGGGCGCCAUGCCUGCAGGUCGACUCUAGAAAACAUG | -7.06 |
| GGCUAGAACUAGUGGAUCCCCCGGCGCCCGGCGGCUCGAGCCCGGGUAAGUUGACGUCGUCUGCAUGCCGCCGGGCGCCAUGCCUGCAGGUCGACUCUAGAAAACAUG | -4.76 |
| GGCUAGAACUAGUGGAUCCCCCGGCGCCCGGCGGCUCGAGCCCGGGUAAGUCGAAGUAGUCUGCAUGCCGCCGGGCGCCAUGCCUGCAGGUCGACUCUAGAAAACAUG | -5.86 |
| GGCUAGAACUAGUGGAUCCCCCGGCGCCCGGCGGCUCGAGCCCGGGUAAGUGGAUGGAGUCUGCAUGCCGCCGGGCGCCAUGCCUGCAGGUCGACUCUAGAAAACAUG | < -6.1 |
| GGCUAGAACUAGUGGAUCCCCCGGCGCCCGGCGGCUCGAGCCCGGGUAAGUGGAAGAUGUCUGCAUGCCGCCGGGCGCCAUGCCUGCAGGUCGACUCUAGAAAACAUG | -6.47 |
| GGCUAGAACUAGUGGAUCCCCCGGCGCCCGGCGGCUCGAGCCCGGGUAAGUUUAAAUAGUCUGCAUGCCGCCGGGCGCCAUGCCUGCAGGUCGACUCUAGAAAACAUG | -6.15 |
| GGCUAGAACUAGUGGAUCCCCCGGCGCCCGGCGGCUCGAGCCCGGGUAAGUGUAAAUGGUCUGCAUGCCGCCGGGCGCCAUGCCUGCAGGUCGACUCUAGAAAACAUG | -5.95 |
| GGCUAGAACUAGUGGAUCCCCCGGCGCCCGGCGGCUCGAGCCCGGGUAAGUGUACGAAGUCUGCAUGCCGCCGGGCGCCAUGCCUGCAGGUCGACUCUAGAAAACAUG | -6.17 |
| GGCUAGAACUAGUGGAUCCCCCGGCGCCCGGCGGCUCGAGCCCGGGUAAGUGCUAGAAGUCUGCAUGCCGCCGGGCGCCAUGCCUGCAGGUCGACUCUAGAAAACAUG | -5.15 |
| GGCUAGAACUAGUGGAUCCCCCGGCGCCCGGCGGCUCGAGCCCGGGUAAGUUGAAAACGUCUGCAUGCCGCCGGGCGCCAUGCCUGCAGGUCGACUCUAGAAAACAUG | -5.65 |
| GGCUAGAACUAGUGGAUCCCCCGGCGCCCGGCGGCUCGAGCCCGGGUAAGCAUCGGUAGUCUGCAUGCCGCCGGGCGCCAUGCCUGCAGGUCGACUCUAGAAAACAUG | -5.11 |
| GGCUAGAACUAGUGGAUCCCCCGGCGCCCGGCGGCUCGAGCCCGGGUAAGUAUAGCUAGUCUGCAUGCCGCCGGGCGCCAUGCCUGCAGGUCGACUCUAGAAAACAUG | -4.91 |
| GGCUAGAACUAGUGGAUCCCCCGGCGCCCGGCGGCUCGAGCCCGGGUAAGUUGGAUCAGUCUGCAUGCCGCCGGGCGCCAUGCCUGCAGGUCGACUCUAGAAAACAUG | -4.53 |
| GGCUAGAACUAGUGGAUCCCCCGGCGCCCGGCGGCUCGAGCCCGGGUAAGCUGGCGUAGUCUGCAUGCCGCCGGGCGCCAUGCCUGCAGGUCGACUCUAGAAAACAUG | -5.62 |
| GGCUAGAACUAGUGGAUCCCCCGGCGCCCGGCGGCUCGAGCCCGGGUAAGUGGACGACGUCUGCAUGCCGCCGGGCGCCAUGCCUGCAGGUCGACUCUAGAAAACAUG | -5.64 |

Already shown: entries from further up.

| Sequence | binding signal (log2 enrichment (interaction score)) |
| --- | --- |
| GGCUAGAACUAGUGGAUCCCCCGGCGCCCGGCGGCUCGAGCCCGGGUAAGUGCUAGAAGUCUGCAUGCCGCCGGGCGCCAUGCCUGCAGGUCGACUCUAGAAAACAUG | -5.15 |
| GGCUAGAACUAGUGGAUCCCCCGGCGCCCGGCGGCUCGAGCCCGGGUAAGUUGAAAACGUCUGCAUGCCGCCGGGCGCCAUGCCUGCAGGUCGACUCUAGAAAACAUG | -5.65 |

More records

| Sequence | binding signal (log2 enrichment (interaction score)) |
| --- | --- |
| GGCUAGAACUAGUGGAUCCCCCGGCGCCCGGCGGCUCGAGCCCGGGUAAGUGGACGUAGUCUGCAUGCCGCCGGGCGCCAUGCCUGCAGGUCGACUCUAGAAAACAUG | -4.15 |
| GGCUAGAACUAGUGGAUCCCCCGGCGCCCGGCGGCUCGAGCCCGGGUAAGCUCUAAUUGUCUGCAUGCCGCCGGGCGCCAUGCCUGCAGGUCGACUCUAGAAAACAUG | < -3.11 |
| GGCUAGAACUAGUGGAUCCCCCGGCGCCCGGCGGCUCGAGCCCGGGUAAGUUGGAAUAGUCUGCAUGCCGCCGGGCGCCAUGCCUGCAGGUCGACUCUAGAAAACAUG | -5.02 |
| GGCUAGAACUAGUGGAUCCCCCGGCGCCCGGCGGCUCGAGCCCGGGUAAGUUGACGUAGUCUGCAUGCCGCCGGGCGCCAUGCCUGCAGGUCGACUCUAGAAAACAUG | -5.49 |
| GGCUAGAACUAGUGGAUCCCCCGGCGCCCGGCGGCUCGAGCCCGGGUAAGUUGACGACGUCUGCAUGCCGCCGGGCGCCAUGCCUGCAGGUCGACUCUAGAAAACAUG | -5.25 |
| GGCUAGAACUAGUGGAUCCCCCGGCGCCCGGCGGCUCGAGCCCGGGUAAGUGUAAAUUGUCUGCAUGCCGCCGGGCGCCAUGCCUGCAGGUCGACUCUAGAAAACAUG | -5.92 |
| GGCUAGAACUAGUGGAUCCCCCGGCGCCCGGCGGCUCGAGCCCGGGUAAGUGGAGGUAGUCUGCAUGCCGCCGGGCGCCAUGCCUGCAGGUCGACUCUAGAAAACAUG | -4.94 |
| GGCUAGAACUAGUGGAUCCCCCGGCGCCCGGCGGCUCGAGCCCGGGUAAGUUGACGAGGUCUGCAUGCCGCCGGGCGCCAUGCCUGCAGGUCGACUCUAGAAAACAUG | -4.76 |
| GGCUAGAACUAGUGGAUCCCCCGGCGCCCGGCGGCUCGAGCCCGGGUAAGUGUACGACGUCUGCAUGCCGCCGGGCGCCAUGCCUGCAGGUCGACUCUAGAAAACAUG | -3.64 |
| GGCUAGAACUAGUGGAUCCCCCGGCGCCCGGCGGCUCGAGCCCGGGUAAGUGGAAAUAGUCUGCAUGCCGCCGGGCGCCAUGCCUGCAGGUCGACUCUAGAAAACAUG | -5.38 |
| GGCUAGAACUAGUGGAUCCCCCGGCGCCCGGCGGCUCGAGCCCGGGUAAGUGAAAAUAGUCUGCAUGCCGCCGGGCGCCAUGCCUGCAGGUCGACUCUAGAAAACAUG | -6.41 |
| GGCUAGAACUAGUGGAUCCCCCGGCGCCCGGCGGCUCGAGCCCGGGUAAGUGGACAUCGUCUGCAUGCCGCCGGGCGCCAUGCCUGCAGGUCGACUCUAGAAAACAUG | < -5.68 |
| GGCUAGAACUAGUGGAUCCCCCGGCGCCCGGCGGCUCGAGCCCGGGUAAGUUGAAGUAGUCUGCAUGCCGCCGGGCGCCAUGCCUGCAGGUCGACUCUAGAAAACAUG | -5.18 |
| GGCUAGAACUAGUGGAUCCCCCGGCGCCCGGCGGCUCGAGCCCGGGUAAGUGUAAAUCGUCUGCAUGCCGCCGGGCGCCAUGCCUGCAGGUCGACUCUAGAAAACAUG | -6.35 |
| GGCUAGAACUAGUGGAUCCCCCGGCGCCCGGCGGCUCGAGCCCGGGUAAGAUGAAAUCGUCUGCAUGCCGCCGGGCGCCAUGCCUGCAGGUCGACUCUAGAAAACAUG | -7.08 |

From PMC8384837
